Experimental data as given in paper PMC8834548, “Epiregulin as an Alternative Ligand for Leptin Receptor Alleviates Glucose Intolerance without Change in Obesity” (Cells, 2022).
Results are given in words; binding and its absence hold for the method and conditions named. In cells and extracts the contact can be indirect. Binding calls can cover weak binding; strength is not graded here.

Amino acid sequences for entries named in this document (tags omitted). A change or cut given only in a name is not applied to a line headed by its entry. Residues count along the entry.
UniProt O14944: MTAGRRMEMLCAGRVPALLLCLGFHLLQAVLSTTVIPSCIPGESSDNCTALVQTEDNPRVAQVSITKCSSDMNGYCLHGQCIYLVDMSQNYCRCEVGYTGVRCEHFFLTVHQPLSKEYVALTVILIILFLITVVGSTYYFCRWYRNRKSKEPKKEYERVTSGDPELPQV
UniProt P48357, residues 22-1165: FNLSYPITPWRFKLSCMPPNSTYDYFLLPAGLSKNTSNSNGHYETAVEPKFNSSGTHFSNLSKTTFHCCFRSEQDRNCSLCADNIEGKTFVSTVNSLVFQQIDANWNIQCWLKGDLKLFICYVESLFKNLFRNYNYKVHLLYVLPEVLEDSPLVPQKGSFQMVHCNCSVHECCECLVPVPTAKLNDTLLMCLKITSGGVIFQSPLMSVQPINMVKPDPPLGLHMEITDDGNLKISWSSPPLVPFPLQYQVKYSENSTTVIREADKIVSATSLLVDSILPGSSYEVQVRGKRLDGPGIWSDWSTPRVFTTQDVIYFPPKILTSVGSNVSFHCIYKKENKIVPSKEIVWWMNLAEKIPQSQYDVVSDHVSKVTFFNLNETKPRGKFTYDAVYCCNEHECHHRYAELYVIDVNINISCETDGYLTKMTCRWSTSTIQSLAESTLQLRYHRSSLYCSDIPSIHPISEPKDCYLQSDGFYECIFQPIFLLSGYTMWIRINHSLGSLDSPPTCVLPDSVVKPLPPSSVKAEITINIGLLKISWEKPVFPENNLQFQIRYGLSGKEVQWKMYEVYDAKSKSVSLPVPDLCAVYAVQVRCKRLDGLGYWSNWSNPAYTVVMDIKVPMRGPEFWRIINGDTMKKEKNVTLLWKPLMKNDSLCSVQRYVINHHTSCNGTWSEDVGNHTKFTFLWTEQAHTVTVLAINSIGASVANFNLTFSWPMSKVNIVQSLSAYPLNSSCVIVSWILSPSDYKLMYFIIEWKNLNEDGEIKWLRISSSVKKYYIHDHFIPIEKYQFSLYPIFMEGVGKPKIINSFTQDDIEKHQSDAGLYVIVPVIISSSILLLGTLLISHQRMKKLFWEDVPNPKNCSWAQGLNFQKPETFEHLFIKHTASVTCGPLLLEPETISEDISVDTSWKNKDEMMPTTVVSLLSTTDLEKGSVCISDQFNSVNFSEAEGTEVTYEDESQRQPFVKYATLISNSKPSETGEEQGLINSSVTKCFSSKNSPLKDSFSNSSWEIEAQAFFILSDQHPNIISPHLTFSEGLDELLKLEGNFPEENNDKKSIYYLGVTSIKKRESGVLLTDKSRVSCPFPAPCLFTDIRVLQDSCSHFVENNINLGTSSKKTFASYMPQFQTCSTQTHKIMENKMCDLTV

Molecular target: epiregulin (EREG), endogenous in human omental adipose tissue (human (endogenous in omental adipose tissue)) (UniProt O14944)
Assay: co-IP; human anti-EREG antibody, abdominal omental adipose tissue of an obese insulin-resistant patient; blot for LEPR (Figure S4)

For “leptin receptor (LEPR), endogenous in human omental adipose tissue (from UniProt P48357 22-1165)”, the binding was “binds weakly”.
